For at least one entry, the source does not settle the construct or the ends of the probe. Weaker means in comparison with the reference protein, sequence or condition of that experiment.
Biological target: [2Fe-2S]-IscR (wild type, anaerobically isolated) (Escherichia coli K12) (UniProt P0AGK8)
Assay: fluorescence anisotropy
Settings: Anisotropy: 40 mM Tris-Cl pH 7.9, 30 mM KCl, 5% glycerol, anaerobic unless stated, temperature not stated for the binding step, recombinant protein, label: 5' Texas Red on strand 1

Chains of the proteins cited; added tags and fusions are not shown. Lines headed by an entry give the natural chain unless they say otherwise; changes in a name come on top.
UniProt P0AGK8: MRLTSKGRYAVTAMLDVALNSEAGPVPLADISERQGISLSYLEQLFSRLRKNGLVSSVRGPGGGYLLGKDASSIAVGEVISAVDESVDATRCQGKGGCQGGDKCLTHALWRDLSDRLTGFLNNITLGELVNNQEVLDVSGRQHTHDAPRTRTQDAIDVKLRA

Q: Does “AAATAGTTGACCATTTTACTCGGGAATGTC (double strand) [iscRB type 1 site 30 bp]” bind (air 15 min and assayed in air ([2Fe-2S]2+), impairment similar to PMS)?
A: Result: binds more weakly

Q: What about the Kd (anaerobic, 2 uM PMS (oxidized [2Fe-2S]2+ cluster), apparent Kd, at least 50-fold weaker) of the same sequence?
A: Its Kd is over 1000 nM.

From publication PMC12594620, “The Role of the [2Fe‐2S] Cluster of Escherichia coli IscR in Responding to Redox‐Cycling Agents”
